# Experimental data taken from the supplement of paper PMC3334620.
# Whole data set: some 33,000 sequences, median “E-score (-0.5 to 0.5)” near -0.0059, cut for the highest 2% near 0.26. The list shows a part of the results.
# Target: T1, Cin5 (UniProt P40917)
# T1 sequence: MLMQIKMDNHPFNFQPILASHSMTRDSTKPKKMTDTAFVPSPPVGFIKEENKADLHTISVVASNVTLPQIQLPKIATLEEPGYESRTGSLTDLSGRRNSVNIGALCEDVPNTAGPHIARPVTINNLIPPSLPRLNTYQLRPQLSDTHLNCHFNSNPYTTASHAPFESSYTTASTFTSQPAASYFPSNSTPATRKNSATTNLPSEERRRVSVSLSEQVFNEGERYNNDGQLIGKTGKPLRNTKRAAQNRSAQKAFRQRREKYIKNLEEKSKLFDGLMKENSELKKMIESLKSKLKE
# Test: PBM E-score (8-mer binding enrichment) (E-score (-0.5 to 0.5)); higher = stronger / more preferred TF binding
# Details: protein concentration: 100 nM; construct: GST-full length
# Procedure, shortened: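 Yeast transcription factors carrying a GST tag, as full-length proteins or DNA-binding domains, were produced by PURExpress in vitro transcription/translation. About 100-200 nM protein was applied to universal all-10-mer Agilent arrays, double-stranded by primer extension on fresh or once-stripped slides. Bound protein was detected with fluorescent anti-GST, and scans were normalised with masliner. The Universal PBM Analysis Suite gave each ungapped eight-base word, pooled with its reverse complement, an E-score, a modified Wilcoxon-Mann-Whitney statistic.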
row,Sequence,PBM E-score
1,AACTCGAA,0.0318
2,AGCTCATC,0.0701
3,GACGGGCA,-0.123
4,CGCAGTAC,-0.181
5,TCGCCTAA,-0.0803
6,CCTAACAG,-0.0185
7,ACGTTATG,0.239
8,GCTTATTA,0.251
9,CATGGCTA,0.037
10,GGACAGAA,0.079
11,GATTCCGA,0.159
12,AAACTAGT,0.082
13,AAAGATTA,0.249
14,CGCTCTTC,-0.198
15,ATGAGCGC,-0.0805
16,ATACGAGG,-0.0715
17,AGCCGCGA,-0.0527
18,GGACGATA,0.0335
19,CGTCGCGC,-0.0413
20,CATCCCGC,0.041
21,ACTCGCCG,0.0846
22,GTACACCA,-0.0324
23,CAGACTCA,-0.0657
24,GACCCGCC,0.0639
25,AGCTGCCC,0.117

# In another format: entries from further up
row | Sequence | PBM E-score
3 | GACGGGCA | -0.123
16 | ATACGAGG | -0.0715
19 | CGTCGCGC | -0.0413
20 | CATCCCGC | 0.041
21 | ACTCGCCG | 0.0846
24 | GACCCGCC | 0.0639

# Remaining list, next part

row,Sequence,PBM E-score
1,AGCGTAGA,-0.129
2,AATCAGGA,0.0872
3,ATAAGTGA,0.0866
4,GCCAATAC,0.0421
5,ATCACATG,0.00787
6,ACAACGGA,0.134
7,CCCCTCGG,-0.33
8,AAGCTCAC,-0.00045
9,AGATGGCT,-0.0252
10,ACCACGAC,-0.023
11,GCTTGCGA,0.00349
12,ATTCATTG,0.116
13,CTGATCCC,-0.041
14,CTACATAG,0.0617
15,AAGAGCAT,0.0355
16,ACATGGTG,0.0908
17,ACGGGACC,-0.254
18,CTCGAGGA,0.0794
19,ATGGCAAG,0.115
20,AGTATCAG,-0.0204
21,CAAAATGG,0.119
22,CCCGAACG,-0.163
23,AGCGCTTC,0.104
24,CACTTGGG,-0.0336
25,ACCCGGGT,-0.0281

row,Sequence,PBM E-score
1,TAACGGAA,0.322
2,CCCCCTTC,-0.46
3,CGTTACGC,-0.0798
4,CAACATTC,-0.106
5,TGCCACAA,0.0555
6,CTAAAAGC,-0.101
7,AAATGTTC,0.0482
8,AACCCATG,0.13
9,CTTTGAGA,-0.0159
10,ATTCCGCA,-0.0146
11,CATGTTTA,0.163
12,CCCAGGCG,-0.148
13,CTCTTCTC,-0.204
14,ACTTGCTC,-0.0492
15,CATTCACA,0.0649
16,ACCATAAT,0.25
17,ACCGACGT,0.0399
18,GCACGTTA,-0.0276
19,ATCTACTG,0.084
20,CATGTGGG,0.0561
21,CACAGTGA,0.0516
22,AACGGTTC,-0.182
23,AAAGACAA,0.256
24,ACCTGTTC,0.0381
25,CCGGCAAA,-0.0177

row,Sequence,PBM E-score
1,AGCACAAT,0.105
2,ACACCATC,0.0669
3,GTAATAAA,0.2
4,GTCAGTTA,-0.0446
5,CAACTTCC,0.149
6,ACCTAGTG,0.14
7,CACAGCTC,-0.106
8,AGAGACTA,-0.183
9,GGCACGAC,-0.165
10,AAGATTGG,0.0559
11,AAATTCTG,0.139
12,CGTCGTAA,0.0474
13,AATGGGTC,-0.053
14,CACAGATC,0.0227
15,CCGATCCC,-0.338
16,AGTTTGCA,0.0867
17,GCGCCATA,-0.13
18,AAATGCAG,0.0624
19,TCTTGCCA,-0.0284
20,TCAGGGAA,-0.0524
21,CCTATTAG,0.0132
22,CCCCATAA,0.00568
23,CGCTGGCA,-0.153
24,CAGCATCG,-0.16
25,AGGGATTC,-0.142

row,Sequence,PBM E-score
1,CCATATGC,0.129
2,GCAGGACC,-0.207
3,GCCGGAGC,-0.302
4,CCCATTCG,0.021
5,CCACTATA,0.154
6,GTTTCCGA,0.12
7,GAAATGAC,0.168
8,AATATGCG,0.236
9,AATTTTGC,0.0341
10,AAGCCCTG,-0.226
11,AGAATGCC,-0.0721
12,TAGAAATA,0.0863
13,TGGTCGAA,-0.242
14,AGTGAACA,0.13
15,CGCTTTAG,-0.0206
16,GTTGTTGA,0.196
17,GATTTGTA,0.2
18,CTGGCCAC,-0.0521
19,ACCTGTCC,-0.135
20,GATCTATA,-0.099
21,CAAACCCG,-0.226
22,AGTTAGCC,-0.0486
23,ACGGATAG,0.141
24,GGAACTGA,-0.0383
25,ACGGCCGA,0.0311

row,Sequence,PBM E-score
1,CAGCGTCG,-0.0104
2,CCAGAGCC,-0.058
3,CGCTTCTC,0.0273
4,GACTAATA,0.229
5,ATGTAAGG,0.103
6,GCGCGCCA,0.105
7,ACATCTAA,-0.0123
8,CCTCGCAA,-0.0418
9,AACCCTCG,-0.116
10,CAGAGCGA,-0.00131
11,GTGGTTTA,0.0817
12,TTATTCAA,0.0609
13,AGGGGCGA,-0.129
14,AGCAGTAA,0.134
15,ATGATAGG,-0.0261
16,AGTCAAAT,0.105
17,AGGGTCCA,-0.306
18,GCATACGC,-0.107
19,ATACCCGA,0.0131
20,AGAGTAGG,0.127
21,ACTCTTGC,-0.108
22,CGCTTCAC,-0.054
23,GGGGAACA,-0.17
24,GAATTGTC,-0.0592
25,CGACCCAA,0.0574

row,Sequence,PBM E-score
1,ATCTGAGG,-0.00049
2,AGCAGAGG,-0.195
3,ACGTTCTC,0.0647
4,CTCCCGCC,-0.136
5,CTAAGTGA,0.0839
6,ATGCTATC,-0.00354
7,TCCAGAAA,0.0657
8,CAGTTACG,-0.0855
9,ACTCGATC,0.114
10,CACTTGCA,0.139
11,CAAGGCGA,-0.153
12,GGTGAGAA,0.0538
13,ACTGTGAA,0.0538
14,ACTCTATG,-0.0375
15,ACGGTCAG,-0.327
16,AGGAAACG,0.0763
17,CCCGTAAC,-0.0624
18,TGAGGCAA,0.0785
19,ACATTGAG,0.0404
20,GACTTAGA,-0.215
21,CAACAAAA,0.077
22,CACCCTTC,-0.0932

# Reformatted bar-delimited: entries from further up.
row | Sequence | PBM E-score
1 | ATCTGAGG | -0.00049
6 | ATGCTATC | -0.00354
16 | AGGAAACG | 0.0763
17 | CCCGTAAC | -0.0624
19 | ACATTGAG | 0.0404
